{"source": "patent US9861099B2", "about": "“Composition for enhancing plant disease control effect of monosaccharide” (MITSUI CHEMICALS AGRO, INC., priority 2013, dated 2018)", "system": "Pseudoperonospora cubensis", "test": "Cucumber downy mildew (CDM) control test", "type": "in vivo", "conditions": "Table 8: D-tagatose liquid preparation with assistant (5 parts), 10-fold dilution (D-tagatose 0.5%+assistant 0.5%); improvement vs D-tagatose only"}
{"smiles": "NCCC[C@H](N)C(=O)O", "note": "[L-ornithine]", "values": [{"measurement": "Evaluation Score CDM", "value": "3 (Improvement in preventive value of 20 to less than 30)"}]}
